From patent EP2582674B1 (Cymabay Therapeutics, Inc., priority 2010, dated 2011)
Some results were stated once for a whole list of compounds, not compound by compound. One block for each compound: values may come before it.

Target: T1, human GPR120 (Homo sapiens, UniProt Q5NUL3)
T1 construct: host or cells: HEK293 cells co-expressing Gqi5
T1 sequence (Q5NUL3 1-361): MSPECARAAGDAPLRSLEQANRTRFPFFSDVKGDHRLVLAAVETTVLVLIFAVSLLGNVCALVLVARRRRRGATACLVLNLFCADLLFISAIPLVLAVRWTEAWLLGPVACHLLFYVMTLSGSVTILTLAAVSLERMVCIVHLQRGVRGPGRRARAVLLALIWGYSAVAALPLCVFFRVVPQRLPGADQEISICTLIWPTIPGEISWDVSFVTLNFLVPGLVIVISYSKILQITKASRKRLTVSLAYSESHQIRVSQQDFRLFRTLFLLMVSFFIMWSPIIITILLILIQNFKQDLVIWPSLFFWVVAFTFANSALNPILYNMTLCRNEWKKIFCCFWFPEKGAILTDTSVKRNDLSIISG
Test: Intracellular Ca2+ assay in human GPR120 stable cell line (FLIPR Calcium 4 dye, Flexstation)
Type: cell-based
Conditions: eight concentrations from 0.00001 to 20 µM; changes (Max-Min) of fluorescence intensity

EC50: ≤ 1000 nM
SMILES: [2H]C1([2H])c2cc(F)cc(COc3ccc(CC(C)C(=O)O)cc3)c2OC1(C)C (centres unmarked) [Example 145, 3-(4-((3,3-dideuterio-5-fluoro-2,2-dimethyl-2,3-dihydrobenzofuran-7-yl)methoxy)phenyl)-2-methylpropanoic acid]

EC50: ≤ 1000 nM
SMILES: Cc1cc(COc2c(F)cc(CC(C)C(=O)O)cc2F)c2c(c1)CC(C)(C)O2 (centres unmarked) [Example 5, 3-(3,5-difluoro-4-((2,2,5-trimethyl-2,3-dihydrobenzofuran-7-yl)methoxy)phenyl)-2-methylpropanoic acid]

EC50: ≤ 1000 nM
SMILES: Cc1cc(CCC(=O)O)c(C)c(C)c1OCc1cc(F)cc2c1OC(C)(C)C2 [Example 254, 3-(4-((5-fluoro-2,2-dimethyl-2,3-dihydrobenzofuran-7-yl)methoxy)-2,3,5-trimethylphenyl) propanoic acid]

EC50: ≤ 1000 nM
SMILES: CC(Cc1ccc(OCc2cc(F)cc3c2OC(C)(C)C3)c(C(F)(F)F)c1)C(=O)O (centres unmarked) [Example 240, 3-(4-((5-fluoro-2,2-dimethyl-2,3-dihydrobenzofuran-7-yl)methoxy)-3-(trifluoromethyl)phenyl)-2-methylpropanoic acid]

EC50: ≤ 1000 nM
SMILES: CCCc1cc(OCc2cc(Cl)cc3c2OC(C)(C)C3=O)ccc1CCC(=O)O [Example 76, 3-(4-((5-chloro-2,2-dimethyl-3-oxo-2,3-dihydrobenzofuran-7-yl)methoxy)-2-propylphenyl)propanoic acid]

EC50: ≤ 1000 nM
SMILES: CCCCCc1c(CCC(=O)O)ccc(OCc2cc(Cl)cc3c2OC(C)(C)C3)c1F [Example 225, 3-(4-((5-chloro-2,2-dimethyl-2,3-dihydrobenzofuran-7-yl)methoxy)-3-fluoro-2-pentylphenyl)propanoic acid]

EC50: ≤ 1000 nM
SMILES: COc1cc(OCc2cc(F)cc3c2OC2(CCCC2)C3)ccc1CCC(=O)O [Example 190, 3-(4-((5-fluoro-3H-spiro[benzofuran-2,1'-cyclopentane]-7-yl)methoxy)-2-methoxyphenyl)propanoic acid]

EC50: ≤ 1000 nM
SMILES: CC(Cc1ccc(OCc2cc(Cl)cc3c2OCC3(C)C)c(F)c1)C(=O)O (centres unmarked) [Example 149, 3-(4-((5-chloro-3,3-dimethyl-2,3-dihydrobenzofuran-7-yl)methoxy)-3-fluorophenyl)-2-methylpropanoic acid]

EC50: ≤ 1000 nM
SMILES: [2H]C([2H])(C(=O)O)C([2H])([2H])c1ccc(OCc2cc(F)cc3c2OC(C)(C)C3)c(F)c1CCC [Example 242, 3-(3-fluoro-4-((5-fluoro-2,2-dimethyl-2,3-dihydrobenzofuran-7-yl)methoxy)-2-propylphenyl)-2,2,3,3-tetradeuteriopropanoic acid]

EC50: ≤ 1000 nM
SMILES: CC1(C)Cc2cc(Cl)cc(CNc3ccc(CCC(=O)O)cc3)c2O1 [Example 127, 3-(4-(((5-chloro-2,2-dimethyl-2,3-dihydrobenzofuran-7-yl)methyl)amino)phenyl) propanoic acid]

EC50: ≤ 1000 nM
SMILES: CC1(C)Cc2cc(F)cc(COc3ccc(CC4CC4C(=O)O)cc3)c2O1 (centres unmarked) [Example 191, 2-(4-((5-fluoro-2,2-dimethyl-2,3-dihydrobenzofuran-7-yl)methoxy)benzyl) cyclopropanecarboxylic acid]

EC50: ≤ 1000 nM
SMILES: CC(C)Oc1ncccc1COc1ccc2c(c1)CCC2CC(=O)O (centres unmarked) [Example 259, 2-(5-((2-isopropoxypyridin-3-yl)methoxy)-2,3-dihydro-1H-inden-1-yl)acetic acid]

EC50: ≤ 1000 nM
SMILES: Cc1cc(COc2ccc(CCCC(=O)O)cc2)c2c(c1)CC(C)(C)O2 [Example 167, 4-(4-((2,2,5-trimethyl-2,3-dihydrobenzofuran-7-yl)methoxy)phenyl)butanoic acid]

EC50: ≤ 1000 nM
SMILES: O=C(O)CCc1ccc(OCc2cc(Cl)cc3c2OC2(CCCC2)C3)cc1F [Example 193, 3-(4-((5-chloro-3H-spiro[benzofuran-2,1'-cyclopentane]-7-yl)methoxy)-2-fluorophenyl)propanoic acid]

EC50: ≤ 1000 nM
SMILES: CC1(C)Cc2cc(Cl)cc(COc3ccc(CCC(=O)O)c(-c4ccccc4)c3)c2O1 [Example 71, 3-(5-((5-chloro-2,2-dimethyl-2,3-dihydrobenzofuran-7-yl)methoxy)-[1,1'-biphenyl]-2-yl)propanoic acid]

EC50: ≤ 1000 nM
SMILES: CC(C)CCc1c(CCC(=O)O)ccc(OCc2cc(F)cc3c2OC(C)(C)C3)c1F [Example 232, 3-(3-fluoro-4-((5-fluoro-2,2-dimethyl-2,3-dihydrobenzofuran-7-yl)methoxy)-2-isopentylphenyl)propanoic acid]

More lines, now with the values behind:

SMILES: CC(C)c1cc(OCc2cc(Cl)cc3c2OC(C)(C)C3)ccc1CCC(=O)O [Example 137, 3-(4-((5-chloro-2,2-dimethyl-2,3-dihydrobenzofuran-7-yl)methoxy)-2-isopropylphenyl) propanoic acid]
EC50: ≤ 1000 nM

SMILES: Cc1cc(COc2ccc(CC(C)C(=O)O)cc2)c2c(c1)CC(C)(C)O2 (centres unmarked) [Example 4, 2-methyl-3-(4-((2,2,5-trimethyl-2,3-dihydrobenzofuran-7-yl)methoxy)phenyl)propanoic acid]
EC50: ≤ 1000 nM

SMILES: CCOc1cc(OCc2cc(OC)cc3c2OC(C)(C)C3)ccc1CCC(=O)O [Example 118, 3-(2-ethoxy-4-((5-methoxy-2,2-dimethyl-2,3-dihydrobenzofuran-7-yl)methoxy)phenyl)propanoic acid]
EC50: ≤ 1000 nM

SMILES: CC1(C)Cc2cc(Cl)cc(COc3ccc(C4CC4CC(=O)O)cc3)c2O1 (centres unmarked) [Example 200, 2-(2-(4-((5-chloro-2,2-dimethyl-2,3-dihydrobenzofuran-7-yl)methoxy)phenyl)cyclopropyl)acetic acid]
EC50: ≤ 1000 nM

SMILES: CC1(C)Cc2cc(F)cc(CCc3ccc(OCC(=O)O)cc3)c2O1 [Example 70, 2-(4-(2-(5-fluoro-2,2-dimethyl-2,3-dihydrobenzofuran-7-yl)ethyl)phenoxy)acetic acid]
EC50: ≤ 1000 nM

SMILES: CC1(C)Cc2cc(F)cc(COc3ccc(CCC(=O)NO)cc3)c2O1 [Example 265, 3-(4-((5-fluoro-2,2-dimethyl-2,3-dihydrobenzofuran-7-yl)methoxy)phenyl)-N-hydroxypropanamide]
EC50: ≤ 1000 nM

SMILES: CC1(C)Cc2cc(Cl)cc(COc3ccc(CC4CC4C(=O)O)cc3)c2O1 (centres unmarked) [Example 192, 2-(4-((5-chloro-2,2-dimethyl-2,3-dihydrobenzofuran-7-yl)methoxy)benzyl) cyclopropanecarboxylic acid]
EC50: ≤ 1000 nM

SMILES: Cc1cc2cccc(COc3ccc4c(c3)CCC4CC(=O)O)c2s1 (centres unmarked) [Example 152, 2-(5-((2-methylbenzo[b]thiophen-7-yl)methoxy)-2,3-dihydro-1H-inden-1-yl)acetic acid]
EC50: ≤ 1000 nM

SMILES: CCc1cc(OCc2cc(F)cc3c2OC(C)(C)C3)ccc1CCC(=O)O [Example 134, 3-(2-ethyl-4-((5-fluoro-2,2-dimethyl-2,3-dihydrobenzofuran-7-yl)methoxy)phenyl)propanoic acid]
EC50: ≤ 1000 nM

SMILES: Cc1c(CCC(=O)O)ccc(OCc2cc(F)cc3c2OC(C)(C)C3)c1F [Example 244, 3-(3-fluoro-4-((5-fluoro-2,2-dimethyl-2,3-dihydrobenzofuran-7-yl)methoxy)-2-methylphenyl)propanoic acid]
EC50: ≤ 1000 nM

SMILES: CC(Cc1cc(F)c(OCc2cc(F)cc3c2OC(C)(C)C3)c(F)c1)C(=O)O (centres unmarked) [Example 18, 3-(3,5-difluoro-4-((5-fluoro-2,2-dimethyl-2,3-dihydrobenzofuran-7-yl)methoxy)phenyl)-2-methylpropanoic acid]
EC50: ≤ 1000 nM

SMILES: CCc1cc(OCc2cc(Cl)cc3cc(C)oc23)ccc1CCC(=O)O [Example 119, 3-(4-((5-chloro-2-methylbenzofuran-7-yl)methoxy)-2-ethylphenyl)propanoic acid]
EC50: ≤ 1000 nM

SMILES: O=C(O)CC1CC1c1ccc(OCc2cc(F)cc3c2OC2(CCCC2)C3)cc1 (centres unmarked) [Example 201, 2-(2-(4-((5-fluoro-3H-spiro[benzofuran-2,1'-cyclopentane]-7-yl)methoxy)phenyl)cyclopropyl)acetic acid]
EC50: ≤ 1000 nM

SMILES: [2H]C([2H])(Oc1ccc(CC(C)C(=O)O)cc1C(F)(F)F)c1cc(F)cc2c1OC(C)(C)C2 (centres unmarked) [Example 231, 3-(4-(dideuterio(5-fluoro-2,2-dimethyl-2,3-dihydrobenzofuran-7-yl)methoxy)-3-(trifluoromethyl)phenyl)-2-methylpropanoic acid]
EC50: ≤ 1000 nM

SMILES: CC1(C)Cc2cc(Cl)cc(COc3ccc4c(c3)CC[C@H]4CC(=O)O)c2O1 [Example 176, (S)-2-(5-((5-chloro-2,2-dimethyl-2,3-dihydrobenzofuran-7-yl)methoxy)-2,3-dihydro-1H-inden-1-yl)acetic acid]
EC50: ≤ 1000 nM

SMILES: Cc1cc(OCc2cc(F)cc3c2OC(C)(C)C3)c(C)cc1CCC(=O)O [Example 206, 3-(4-((5-fluoro-2,2-dimethyl-2,3-dihydrobenzofuran-7-yl)methoxy)-2,5-dimethylphenyl)propanoic acid]
EC50: ≤ 1000 nM

SMILES: O=C(O)CCc1ccc(OCc2cc(F)cc3c2OC2(CCCC2)C3)cc1F [Example 189, 3-(2-fluoro-4-((5-fluoro-3H-spiro[benzofuran-2,1'-cyclopentane]-7-yl)methoxy)phenyl)propanoic acid]
EC50: ≤ 1000 nM

SMILES: CCc1cc(CCC(=O)O)ccc1OCc1cc(Cl)cc2c1OC(C)(C)C2 [Example 247, 3-(4-((5-chloro-2,2-dimethyl-2,3-dihydrobenzofuran-7-yl)methoxy)-3-ethylphenyl)propanoic acid]
EC50: ≤ 1000 nM

SMILES: Cc1cc(OCc2cc(F)cc3c2OC(C)(C)C3)c(F)cc1CCC(=O)O [Example 214, 3-(5-fluoro-4-((5-fluoro-2,2-dimethyl-2,3-dihydrobenzofuran-7-yl)methoxy)-2-methylphenyl)propanoic acid]
EC50: ≤ 1000 nM
